US20060063727, “Tr4/tr2 response elements” (published 2006)
Where a protein sequence is shown, tags need not be part of it. Construct, isoform or probe ends are uncertain for at least one entry.

Key:
[1] = biological target: T1, TR4 orphan receptor (NR2C2) (Homo sapiens) (UniProt P49116); experiment: activity in cells; conditions: protein in cells, only the site is given
T1 sequence: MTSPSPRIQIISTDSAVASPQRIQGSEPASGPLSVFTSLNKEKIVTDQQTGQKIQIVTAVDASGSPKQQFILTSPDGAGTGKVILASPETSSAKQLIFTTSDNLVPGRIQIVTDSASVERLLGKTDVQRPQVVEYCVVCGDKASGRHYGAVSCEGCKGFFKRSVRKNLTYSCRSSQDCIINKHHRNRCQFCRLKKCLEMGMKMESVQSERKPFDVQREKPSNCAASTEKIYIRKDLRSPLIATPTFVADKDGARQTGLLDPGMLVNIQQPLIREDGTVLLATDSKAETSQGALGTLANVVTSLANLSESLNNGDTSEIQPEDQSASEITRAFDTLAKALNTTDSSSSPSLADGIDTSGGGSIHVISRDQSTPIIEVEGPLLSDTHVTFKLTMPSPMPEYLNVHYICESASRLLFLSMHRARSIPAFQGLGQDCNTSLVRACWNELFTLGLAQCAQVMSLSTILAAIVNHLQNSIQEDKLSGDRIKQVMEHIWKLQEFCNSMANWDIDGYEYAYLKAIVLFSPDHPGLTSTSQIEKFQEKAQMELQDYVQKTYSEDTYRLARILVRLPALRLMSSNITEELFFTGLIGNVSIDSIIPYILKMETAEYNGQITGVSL

[2] = biological target: T2, TR2 orphan receptor (TR2-11, NR2C1) (Homo sapiens) (UniProt P13056); experiment: activity in cells; conditions: protein in cells, only the site is given
T2 sequence: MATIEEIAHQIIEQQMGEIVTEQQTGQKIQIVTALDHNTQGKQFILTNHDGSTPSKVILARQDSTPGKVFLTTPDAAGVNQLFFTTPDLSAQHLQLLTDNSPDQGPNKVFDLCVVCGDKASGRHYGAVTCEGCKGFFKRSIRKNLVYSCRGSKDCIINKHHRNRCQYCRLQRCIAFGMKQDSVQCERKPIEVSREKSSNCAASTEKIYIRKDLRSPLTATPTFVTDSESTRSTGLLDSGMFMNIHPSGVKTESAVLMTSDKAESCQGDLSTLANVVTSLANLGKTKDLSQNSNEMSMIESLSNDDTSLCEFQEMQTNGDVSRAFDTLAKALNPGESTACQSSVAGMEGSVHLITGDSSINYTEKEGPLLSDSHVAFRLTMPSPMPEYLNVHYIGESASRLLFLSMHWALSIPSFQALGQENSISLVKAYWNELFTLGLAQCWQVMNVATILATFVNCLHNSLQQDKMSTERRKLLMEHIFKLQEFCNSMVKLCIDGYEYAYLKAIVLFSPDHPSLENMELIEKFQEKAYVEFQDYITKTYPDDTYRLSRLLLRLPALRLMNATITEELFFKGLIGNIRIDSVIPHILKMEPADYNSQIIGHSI

[3] = biological target: T1, TR4 orphan receptor (NR2C2) (Homo sapiens); experiment: EMSA; conditions: Scatchard; 25 mM Tris pH 8.0, 50 mM KCl, poly(dI.dC); protein translated in vitro; label: 32P

Sequence: GGAAAAAGGTCAGG (double strand) [-228TR4RE]
- activity on this sequence ([1]; significant luciferase repression, Y-1 cells): active

Sequence: GGTTCACCGAAAGTTCA (double strand) [RARE of RARbeta]
- activity on this sequence (% suppression) ([2]; RA-induced pRARbeta-CAT, 2 ug pCMV-TR2, HaCaT cells): 44.7

Sequence: GTCGACAGGGGACCAGGACAAAGGTCACGTTCGGGAGTCGAC (double strand) [PPRE (rat acyl-CoA oxidase)]
- Kd [3]: 0.34 nM
- activity on this sequence (% (repressed to)) ([2]; Wy-14643-induced PPRE3-tk-LUC with PPARalpha, HaCaT cells, suppression disappears at higher TR2): 59.8
- activity on this sequence (% suppression) ([1]; Wy-14643-induced PPRE3-tk-LUC with PPARalpha, HaCaT cells, maximal): 95
